Results reported in PubChem BioAssay AID1347076 (National Center for Advancing Translational Sciences (NCATS), 2019).
The campaign covered roughly 400,000 compounds. About 13,000 (3.2%) were called active. Inconclusive results, whose numbers are uncertain, are shown with a selection of clear calls. Calls come from the whole dose curve; as a rule, active = well fitted cell-killing curve with a large enough effect; inconclusive = small, poorly fitted or top-dose-only effect, or effect the other way; inactive = flat fitted curve, though single readings scatter. A potency beside an inconclusive call is a rough fit, not a confirmed value. The source holds several records for some structures; these can differ, active in one and inactive in another.

assay: qHTS assay for MDR1-selective chemotherapeutics: Primary screen using the drug-selected MDR subline cells KB-V1; details: KB-V1 MDR cells viability, CellTiter-Glo, 72 h; series mostly up to 46.1 µM; note: nearly all actives have a fitted effect of over 60% in size
Summary of the method: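 Cells of the MDR subline KB-V1 are plated, dosed with compound at multiple concentrations, and incubated 72 h at 37 degrees C; CellTiter-Glo is then added and luminescence read after 10 min.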
Potency is the fitted concentration of half-maximal effect.

For `CC(C)NC(=O)Nc1ccc2c(c1)C(=O)N([C@H](C)CO)C[C@H](C)[C@@H](CN(C)C(=O)Nc1ccc3c(c1)OCO3)O2`, which Potency is on record?
Its Potency is “inactive”.

Which Potency does the source give for `COc1ncccc1C(=O)N1CCCC(N2CCN(c3cccc(Cl)c3)CC2)C1` (centres undefined) here?
The Potency was “inactive”.

Which Potency does the source give for `O=C(CSc1nc2ccccc2nc1Cc1ccc(Cl)cc1)N1CCc2ccccc21` here?
The Potency was inconclusive: 16.4 µM [cytotoxic, single point].

For `Cc1ccc(-c2nc(C)c(CCNC(=O)c3ccco3)s2)cc1`, which Potency is on record?
Its Potency is inconclusive: 9.2 µM [cytotoxic, partial curve].

Which Potency does the source give for `CCOc1cc(CO)cc(Br)c1OCC(=O)Nc1ccccc1C` here?
The Potency was inconclusive: 29.1 µM [cytotoxic, single point].

For `CCCN(CCC)C(=O)CC(c1ccccc1)c1ccc(C)cc1O` (centres undefined), which Potency is on record?
Its Potency is active: 7.31 µM.

Which Potency does the source give for `O=C(NCCc1c[nH]c2ccccc12)c1cc2sccc2n1Cc1ccccc1` here?
The Potency was inconclusive: 20.6 µM [cytotoxic, single point].

Which Potency does the source give for `CCC(C)[C@H](NC(=O)[C@H](Cc1ccccc1)n1c(=O)[nH]c2ccccc2c1=O)C(=O)NCC1CCC(C(=O)O)CC1` (some centres undefined) here?
The Potency was inconclusive: 29.1 µM [rising, single point].

With `CCCCNC(=O)C1C(c2ccccc2)=Nc2ccccc2N1C(=O)c1ccc2c(c1)OCO2` (centres undefined) as the compound, how does the Potency read?
Its Potency is inconclusive: 7.31 µM [cytotoxic, partial curve].

Which Potency does the source give for `CC1(C)CCC(=O)N2CC[C@H]3C[C@H](OC(=O)Nc4ccccc4)C[C@@H]1[C@H]32` here?
Its Potency is active: 18.4 µM.

With `CCCSc1nc2c(c(=O)[nH]c(=O)n2C)n1CCc1ccccc1` as the compound, how does the Potency read?
Its Potency is inconclusive: 18.4 µM [cytotoxic, partial curve].

With `CC(C)(C)c1nc2cc(Cl)c([N+](=O)[O-])cc2o1` as the compound, how does the Potency read?
The Potency was inconclusive: 29.1 µM [cytotoxic, single point].

With `Cc1cc(C)c2cc(C#N)c(NCCCNC(=O)c3ccncc3)nc2c1` as the compound, how does the Potency read?
Its Potency is “inactive”.

Which Potency does the source give for `C=CCOC(=O)CCC(=O)Nc1cccc2ccccc12` here?
The Potency was inconclusive: 20.6 µM [rising, single point].

Which Potency does the source give for `O=C(Nc1cccc(-c2cnc3ccccc3n2)c1)c1cccc(NC(=O)c2ccco2)c1` here?
The Potency was inconclusive: 9.2 µM [cytotoxic, partial curve, poor fit].

Which Potency does the source give for `O=C(/C=C/c1cccs1)NCc1cccnc1` here?
The Potency was inconclusive: 5.8 µM [rising, partial curve, poor fit].

For `CC(C)(C)NC(=O)C(=O)NNC(=O)COc1ccc(Br)cc1`, which Potency is on record?
Its Potency is inconclusive: 23.1 µM [cytotoxic, single point].

Which Potency does the source give for `O=C(CN1CCCCC1)N/N=C/c1ccc(Cl)cc1Cl` here?
Its Potency is “inactive”.

With `CCCn1c(SCc2ccc(Cl)cc2)nc2c1c(=O)[nH]c(=O)n2C` as the compound, how does the Potency read?
Its Potency is inconclusive: 23.1 µM [cytotoxic, single point].

Which Potency does the source give for `CCN(CC(=O)Nc1ccccc1OC)CC(=O)Nc1ccccc1-c1ccccc1` here?
Its Potency is active: 8.2 µM.

Which Potency does the source give for `O=C(Nc1ccc(S(=O)(=O)N2CCCCCC2)cc1)c1ccco1` here?
The Potency was inconclusive: 25.9 µM [cytotoxic, single point].

Which Potency does the source give for `Cc1c(C(=O)c2ccc(Cl)c([N+](=O)[O-])c2)c2ccccn2c1CCC#N` here?
Its Potency is inconclusive: 14.6 µM [cytotoxic, partial curve].

For `CCOc1ccc(OCC)c(NC(=O)CCSCCc2ccccn2)c1`, which Potency is on record?
Its Potency is inconclusive: 20.6 µM [cytotoxic, single point].

Which Potency does the source give for `Cc1ccc(C(=O)n2nc(C)c(S(=O)(=O)N3CCOCC3)c2C)cc1` here?
The Potency was “inactive”.

With `O=C(Cc1ccccc1)NCC(=O)Nc1cc(Cl)ccc1Cl` as the compound, how does the Potency read?
The Potency was inconclusive: 29.1 µM [cytotoxic, single point].

Which Potency does the source give for `O=C(CSc1nc2ccccc2[nH]1)N1CCN(c2ccccc2)CC1` here?
Its Potency is active: 16.4 µM.

Which Potency does the source give for `O=C(NCc1cccc(Cl)c1)c1cc(COc2ccc3ncccc3c2)on1` here?
Its Potency is active: 3.26 µM.

With `O=C(CCCCCCCCCCC(=O)NCc1cccnc1)NCc1cccnc1` as the compound, how does the Potency read?
Its Potency is inconclusive: 16.4 µM [rising, partial curve].

Which Potency does the source give for `Cc1nn(C)c(Cl)c1NC(=O)OCc1ccc(F)cc1` here?
Its Potency is “inactive”.

With `O=C(c1ccccc1)c1ccc(OCC(O)CNCc2ccc(F)cc2)cc1` (centres undefined) as the compound, how does the Potency read?
The Potency was active: 23.1 µM.

For `COc1ccc(NS(=O)(=O)c2cc([N+](=O)[O-])ccc2N/N=C\c2c(C)[nH]c3ccccc23)cc1`, which Potency is on record?
The Potency was inconclusive: 29.1 µM [cytotoxic, single point].

For `Cc1cc2nc(-c3ccc(SCC(=O)Nc4ccc5c(c4)OCCO5)nc3)[nH]c2cc1C`, which Potency is on record?
The Potency was inconclusive: 14.6 µM [cytotoxic, single point].

For `Cc1nc(CS(=O)(=O)c2ccccc2)cc(N2CCN(c3ccccc3F)CC2)n1`, which Potency is on record?
The Potency was inconclusive: 0.58 µM [cytotoxic, full curve, poor fit].

For `COc1ccc(/C=C(/C(=O)Nc2ccccc2C(=O)NC(C)C)c2ccccc2)cc1`, which Potency is on record?
The Potency was inconclusive: 20.6 µM [cytotoxic, partial curve].

Which Potency does the source give for `CCOC(=O)c1ccc(Oc2ccc(C(F)(F)F)cn2)cc1` here?
The Potency was inconclusive: 25.9 µM [rising, single point].

Which Potency does the source give for `COc1ccc(CCNC(=O)c2cc(S(=O)(=O)N(C)C)ccc2N2CCCC2)cc1OC` here?
The Potency was inconclusive: 20.6 µM [cytotoxic, partial curve, poor fit].

With `COc1cccc(-c2nn(C)c3sc(C(=O)NCCc4ccc(Cl)cc4)cc23)c1` as the compound, how does the Potency read?
The Potency was “inactive”.

With `Cc1cc(S(=O)(=O)Nc2ccc(-c3ccc(N4CCCCC4)nn3)cc2)c(C)cc1Cl` as the compound, how does the Potency read?
The Potency was inconclusive: 29.1 µM [cytotoxic, single point].

With `COC(=O)c1cccc(Nc2nc(-c3ccncc3)nc3ccccc23)c1` as the compound, how does the Potency read?
The Potency was “inactive”.

For `CCCOc1ccc(CCC(=O)N/N=C/c2ccncc2)cc1`, which Potency is on record?
Its Potency is inconclusive: 29.1 µM [cytotoxic, single point].

Which Potency does the source give for `CCN(CC)C1=NS(=O)(=O)c2cc([N+](=O)[O-])ccc21` here?
Its Potency is inconclusive: 18.4 µM [cytotoxic, partial curve, poor fit].

For `COc1ccc(S(=O)(=O)N(C)C)cc1NC(=O)COC(=O)c1n[nH]c2ccccc12`, which Potency is on record?
Its Potency is “inactive”.

Which Potency does the source give for `C=C1c2ccccc2O[C@H](C(=O)OCC)[C@H]1OC` here?
Its Potency is “inactive”.

With `Cc1nc2c(sc3nc4c(cc32)COC(C)(C)C4)c(=O)n1CC(=O)NCc1ccco1` as the compound, how does the Potency read?
The Potency was inconclusive: 29.1 µM [cytotoxic, single point].
